# Library screen at single concentrations

Sequences of proteins named here, by UniProt entry; tags and fusion partners are left off. Residues count along the entry.
UniProt Q4DA54, 1-478: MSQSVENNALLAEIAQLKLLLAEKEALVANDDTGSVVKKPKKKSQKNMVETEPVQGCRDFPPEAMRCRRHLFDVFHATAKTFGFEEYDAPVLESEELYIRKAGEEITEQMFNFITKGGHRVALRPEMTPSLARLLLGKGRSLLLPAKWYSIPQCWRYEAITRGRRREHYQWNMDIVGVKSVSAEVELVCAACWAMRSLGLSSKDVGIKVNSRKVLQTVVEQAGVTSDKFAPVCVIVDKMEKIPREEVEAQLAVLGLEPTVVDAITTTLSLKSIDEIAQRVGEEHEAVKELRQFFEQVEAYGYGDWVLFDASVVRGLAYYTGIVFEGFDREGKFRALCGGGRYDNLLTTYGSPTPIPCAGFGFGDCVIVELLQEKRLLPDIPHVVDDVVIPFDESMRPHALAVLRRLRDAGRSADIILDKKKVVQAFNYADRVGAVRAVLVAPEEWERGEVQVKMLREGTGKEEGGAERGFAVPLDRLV
UniProt P9WNZ1, whole entry: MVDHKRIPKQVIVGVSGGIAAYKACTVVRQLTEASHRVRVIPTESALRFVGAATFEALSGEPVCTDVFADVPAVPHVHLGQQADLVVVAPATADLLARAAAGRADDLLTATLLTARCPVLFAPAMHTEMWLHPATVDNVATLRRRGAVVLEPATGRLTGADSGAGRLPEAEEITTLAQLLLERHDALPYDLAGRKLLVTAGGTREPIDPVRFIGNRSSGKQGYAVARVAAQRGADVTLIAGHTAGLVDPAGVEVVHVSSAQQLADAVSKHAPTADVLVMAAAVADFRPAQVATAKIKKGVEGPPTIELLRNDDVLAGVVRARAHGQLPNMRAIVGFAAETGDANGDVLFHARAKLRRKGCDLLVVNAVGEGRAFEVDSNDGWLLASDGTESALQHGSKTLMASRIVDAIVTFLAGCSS

Measurements from “University of Dundee, Small-Polar-MMV Screening Library” (2021), ChEMBL document CHEMBL3988442.

TcHisRS: 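Histidine-tRNA ligase, Trypanosoma cruzi CL Brener (UniProt Q4DA54). Enzyme assay of histidyl-tRNA synthetase; the read-out is not stated. Tested at 30 µM. The record gives no direction; compounds that gave an IC50 in retests scored well above the rest, so higher reads as stronger inhibition. About 69,000 compounds were tested under these conditions; 0.045% (about 31) showed 50% or more at least once.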
CoaBC: 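Enzyme assay of CoaBC with a phosphate dye (Biomol Green) read at 650 nm. Target: Coenzyme A biosynthesis protein CoaBC, Mycobacterium tuberculosis (UniProt P9WNZ1). Compounds at 30 µM. Higher reads as stronger inhibition, judged from the few compounds that gave an IC50. Most strong results did not repeat in a second test. Size under these conditions: about 67,000 compounds, about 40 of them at 50% or above in at least one test.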

Values are the deposited “Percent Effect”, in %.
The controls that fix the scale are not given in the record; negative values are as filed.
Compounds were drawn at random from those tested, without regard to their results.

{"structure": "Cc1nc(-c2ccc(Cl)cc2)n(CC(=O)NC(C)C)c(=O)c1CCO", "TcHisRS": 10, "CoaBC": 7.99}
{"structure": "CCOc1nc2cccnc2n(CC(=O)NCCOC)c1=O", "TcHisRS": 0, "CoaBC": 5.703}
{"structure": "CNC(=O)CSC(C)c1ccc(Br)cc1", "stereo": "stereo not shown", "TcHisRS": -0.4926, "CoaBC": 5.38}
{"structure": "Cc1ccn(-c2cncc(C(N)=O)c2)n1", "TcHisRS": -13.73, "CoaBC": -1.22}
{"structure": "O=C(CCn1cnc2ccccc21)N1CCN2CCCCC2C1", "stereo": "stereo not shown", "TcHisRS": -0.8772, "CoaBC": -5.896}
{"structure": "CC(C)N(CCCNC(=O)C1CCCN(C(N)=O)C1)S(C)(=O)=O", "stereo": "stereo not shown", "TcHisRS": 5.603, "CoaBC": 0.3802}
{"structure": "c1cnc(OCc2nnc3n2CCN(CC2CCOCC2)C3)nc1", "TcHisRS": 5.785, "CoaBC": 1.681}
{"structure": "CCN(Cc1noc(CC(C)C)n1)Cc1cccc(F)c1O", "TcHisRS": 8.427, "CoaBC": 7.042}
{"structure": "CN1CCN(C2CCN(CC(=O)NCC(F)(F)F)CC2)C1=O", "TcHisRS": 2.256, "CoaBC": -5.398}
{"structure": "CC(C)CCC(=O)N1CCCC1c1nnc2n1CCCCC2", "stereo": "stereo not shown", "TcHisRS": 5.83, "CoaBC": 3.807}
{"structure": "COc1ccc2nnc(CCC(=O)Nc3nc4c(s3)CCCC4)n2n1", "TcHisRS": 6.931, "CoaBC": 3.855}
{"structure": "CC(C)n1cc(N2CC(C(=O)N3CCN(C)CC3)CC2=O)cn1", "stereo": "stereo not shown", "TcHisRS": 8.247, "CoaBC": 8.725}
{"structure": "Cc1cnc(N2C[C@H]3C[C@H](C(=O)N(C)C)[C@@H](C2)O3)nc1", "TcHisRS": -2.703, "CoaBC": 2.411}
{"structure": "Cc1noc(C)c1CCC(=O)N1CCN(Cc2cscn2)CC1", "TcHisRS": 5.917, "CoaBC": 8.999}
{"structure": "O=C(Nc1cccnc1)[C@H]1C[C@@H]2CCN(c3nncs3)C[C@H]2O1", "TcHisRS": 0.5348, "CoaBC": 3.106}
{"structure": "Cc1cc(CN(C)c2nc(-c3ccccn3)nc3c2CCNCC3)n[nH]1", "TcHisRS": 4.95, "CoaBC": -12.56}
{"structure": "Cc1nc(C)n(CC2CCCN(CCC(=O)NC3CCCC3)C2)n1", "stereo": "stereo not shown", "TcHisRS": 5.539, "CoaBC": 3.655}
{"structure": "Cc1cc(Br)c(O)c(-c2nc(N3CCOCC3)sc2C)c1", "TcHisRS": 0, "CoaBC": -3.804}
{"structure": "Cc1nc(C2CCN2c2ncccn2)cc(N(C)C)n1", "stereo": "stereo not shown", "TcHisRS": 11.88, "CoaBC": 2.913}
{"structure": "CC(=O)N1CCCN(Cc2nnc(C(C)(C)C)o2)CC1", "TcHisRS": 7.882, "CoaBC": -0.3205}
{"structure": "CC(C)(C)C(=O)N1CCC(n2nc(-c3ccco3)ccc2=O)CC1", "TcHisRS": 4.255, "CoaBC": 0.2451}
{"structure": "CC(C)(C)c1nc(NS(=O)(=O)c2ccccc2F)no1", "TcHisRS": 5.288, "CoaBC": -0.1272}
{"structure": "O=C(c1cnc(OCC(F)(F)F)c(Cl)c1)N1CCc2ccc(O)cc2C1", "TcHisRS": 3.012, "CoaBC": 2.805}
{"structure": "COC1(CNC(=O)c2ccoc2)CCSC1", "stereo": "stereo not shown", "TcHisRS": 7.229, "CoaBC": 0.5089}
{"structure": "CCN1CC[C@@]2(C(=O)N3CCCC3)CCN(S(C)(=O)=O)CC[C@@H]12", "TcHisRS": 8.738, "CoaBC": -5.598}
{"structure": "Cc1ccc(C)c2c(C)c(C(=O)NCCCn3ccnn3)[nH]c12", "TcHisRS": -0.8, "CoaBC": 0.6369}
{"structure": "CCN(CC)c1ccc(NS(=O)(=O)c2cncc(F)c2)cn1", "TcHisRS": 6.612, "CoaBC": 0.2151}
{"structure": "CCN(C(C)=O)C(c1ccc(Cl)cc1)c1ccccn1", "stereo": "stereo not shown", "TcHisRS": 1.442, "CoaBC": 1.399}
{"structure": "Cc1ccc(-c2nc(CNCC3CN(C)CCO3)co2)c(C)c1", "stereo": "stereo not shown", "TcHisRS": 7.558, "CoaBC": 13.16}
{"structure": "C=Cc1ccc(C(=O)N2CCCC(Nc3ccccc3)C2)cc1", "stereo": "stereo not shown", "TcHisRS": -4.523, "CoaBC": 5.911}
{"structure": "CCn1c(CN(C)C)nnc1C1CCN(Cc2ccc(Cl)cc2F)CC1", "TcHisRS": 1.508, "CoaBC": -3.498}
{"structure": "Cn1ccnc1CN1CCCC(CO)(CCc2ccccc2)C1", "stereo": "stereo not shown", "TcHisRS": 1.163, "CoaBC": -25.75}
{"structure": "COc1ncccc1NC(=O)N1CCC(C(=O)NC(C)C)CC1", "TcHisRS": 6.122, "CoaBC": -0.8739}
{"structure": "O=C(c1cc(F)ccc1F)C1CCN(C(=O)c2ccco2)CC1", "TcHisRS": 6.706, "CoaBC": 3.394}
{"structure": "Cc1nn(C)cc1S(=O)(=O)NCC(c1ccccc1)N1CCCCCC1", "stereo": "stereo not shown", "TcHisRS": 0.3831, "CoaBC": 2.153}
{"structure": "CC(=O)C1(c2ccccc2)CCN(C(=O)C2CNCCO2)CC1", "stereo": "stereo not shown", "TcHisRS": 7.143, "CoaBC": 0.2451}

The first 2 entries again:

Cc1nc(-c2ccc(Cl)cc2)n(CC(=O)NC(C)C)c(=O)c1CCO read TcHisRS: 10%; CoaBC: 7.99%.
CCOc1nc2cccnc2n(CC(=O)NCCOC)c1=O read TcHisRS: 0%; CoaBC: 5.703%.